{"source": "the supplement of paper PMC11348887", "settings_in_all_cases": "5 µM; treatment: days 7-14 after plating, readout day 21", "key": {"[1]": {"system": "hPSC-derived cortical neurons (WA09)", "assay": "nucleus area z-score vs screen plate; higher = larger nuclei (more mature)"}, "[2]": {"system": "hPSC-derived cortical neurons (WA09)", "assay": "total neurite length per nucleus (MAP2) z-score; higher = more neurite growth"}, "[3]": {"system": "hPSC-derived cortical neurons (WA09)", "assay": "nucleus roundness z-score vs screen plate; higher = rounder nuclei (more mature)"}, "[4]": {"system": "hPSC-derived cortical neurons (WA09)", "assay": "KCl-induced FOS+/EGR-1+ double-positive nuclei fraction z-score (KCl minus unstimulated); higher = stronger activity-induced IEG response"}}, "note": "Where a name gives a salt, the structure may show the parent alone. The list shows a part of the results. Most values lie at the level of the controls, where differences are scatter.", "data": [{"smiles": "O=C(O)CSCC(=O)NC1CCSC1=O", "note": "(stereo unspecified) [Erdosteine]", "values": [{"measurement": "nucleus area z-score", "setting": "[1]", "value": -0.809}, {"measurement": "total neurite length per nucleus (z-score)", "setting": "[2]", "value": 1.44}, {"measurement": "nucleus roundness z-score", "setting": "[3]", "value": -0.17}, {"measurement": "KCl-induced FOS+/EGR-1+ double-positive nuclei fraction z-score", "setting": "[4]", "value": 1.66}]}, {"smiles": "CN1CCc2nc(C(=O)N[C@@H]3C[C@@H](C(=O)N(C)C)CC[C@@H]3NC(=O)C(=O)Nc3ccc(Cl)cn3)sc2C1", "note": "[Edoxaban]", "values": [{"measurement": "nucleus area z-score", "setting": "[1]", "value": -0.42}, {"measurement": "total neurite length per nucleus (z-score)", "setting": "[2]", "value": 0.744}, {"measurement": "nucleus roundness z-score", "setting": "[3]", "value": 0.362}, {"measurement": "KCl-induced FOS+/EGR-1+ double-positive nuclei fraction z-score", "setting": "[4]", "value": 0.447}]}, {"smiles": "COc1nc(C)cnc1NS(=O)(=O)c1cccnc1-c1ccc(-c2nnco2)cc1", "note": "[Zibotentan (ZD4054)]", "values": [{"measurement": "nucleus area z-score", "setting": "[1]", "value": -1.19}, {"measurement": "total neurite length per nucleus (z-score)", "setting": "[2]", "value": -1.03}, {"measurement": "nucleus roundness z-score", "setting": "[3]", "value": 0.224}, {"measurement": "KCl-induced FOS+/EGR-1+ double-positive nuclei fraction z-score", "setting": "[4]", "value": 0.0462}]}, {"smiles": "C[C@H](O)C(=O)Nc1c(I)c(C(=O)NC(CO)CO)c(I)c(C(=O)NC(CO)CO)c1I", "note": "[Iopamidol]", "values": [{"measurement": "nucleus area z-score", "setting": "[1]", "value": 0.0741}, {"measurement": "total neurite length per nucleus (z-score)", "setting": "[2]", "value": -0.118}, {"measurement": "nucleus roundness z-score", "setting": "[3]", "value": -1.83}, {"measurement": "KCl-induced FOS+/EGR-1+ double-positive nuclei fraction z-score", "setting": "[4]", "value": 1.78}]}, {"smiles": "CN1CCN(c2ccc3nc(-c4c(N)c5c(F)cccc5[nH]c4=O)[nH]c3c2)CC1", "note": "[Dovitinib (TKI-258_ CHIR-258)]", "values": [{"measurement": "nucleus area z-score", "setting": "[1]", "value": -4.64}, {"measurement": "total neurite length per nucleus (z-score)", "setting": "[2]", "value": -2.45}, {"measurement": "nucleus roundness z-score", "setting": "[3]", "value": -5.14}, {"measurement": "KCl-induced FOS+/EGR-1+ double-positive nuclei fraction z-score", "setting": "[4]", "value": -0.13}]}, {"smiles": "CNC1CCC(N(Cc2cccc(-c3ccncc3)c2)C(=O)c2sc3ccccc3c2Cl)CC1", "note": "(stereo unspecified) [Smoothened Agonist (SAG) HCl]", "values": [{"measurement": "nucleus area z-score", "setting": "[1]", "value": -3.37}, {"measurement": "total neurite length per nucleus (z-score)", "setting": "[2]", "value": -0.39}, {"measurement": "nucleus roundness z-score", "setting": "[3]", "value": -0.481}, {"measurement": "KCl-induced FOS+/EGR-1+ double-positive nuclei fraction z-score", "setting": "[4]", "value": 0.273}]}, {"smiles": "CCn1cc(C(=O)O)c(=O)c2cc(F)c(N3CCN(C)CC3)cc21", "note": "[Pefloxacin Mesylate]", "values": [{"measurement": "nucleus area z-score", "setting": "[1]", "value": -0.562}, {"measurement": "total neurite length per nucleus (z-score)", "setting": "[2]", "value": -0.446}, {"measurement": "nucleus roundness z-score", "setting": "[3]", "value": -0.0969}, {"measurement": "KCl-induced FOS+/EGR-1+ double-positive nuclei fraction z-score", "setting": "[4]", "value": -0.709}]}, {"smiles": "CCCCCN(C)CCC(O)(P(=O)(O)O)P(=O)(O)O", "note": "[Ibandronate sodium]", "values": [{"measurement": "nucleus area z-score", "setting": "[1]", "value": 1.52}, {"measurement": "total neurite length per nucleus (z-score)", "setting": "[2]", "value": 0.00763}, {"measurement": "nucleus roundness z-score", "setting": "[3]", "value": -0.135}, {"measurement": "KCl-induced FOS+/EGR-1+ double-positive nuclei fraction z-score", "setting": "[4]", "value": -0.344}]}, {"smiles": "O=C(Nc1cccnc1)c1cc(-c2ccnc(F)c2)ccc1OCc1ccccc1", "values": [{"measurement": "nucleus area z-score", "setting": "[1]", "value": 0.848}, {"measurement": "total neurite length per nucleus (z-score)", "setting": "[2]", "value": 2.79}, {"measurement": "nucleus roundness z-score", "setting": "[3]", "value": 2.98}, {"measurement": "KCl-induced FOS+/EGR-1+ double-positive nuclei fraction z-score", "setting": "[4]", "value": 4.48}]}]}
